{
  "sequences": {"note": "Sequences of proteins named here, by UniProt entry; tags and fusion partners are left off. A change or cut given only in a name is not applied to a line headed by its entry. A line that says so, or that is headed by a name, gives the form on record, which may keep a tag or linker.", "UniProt P52294": "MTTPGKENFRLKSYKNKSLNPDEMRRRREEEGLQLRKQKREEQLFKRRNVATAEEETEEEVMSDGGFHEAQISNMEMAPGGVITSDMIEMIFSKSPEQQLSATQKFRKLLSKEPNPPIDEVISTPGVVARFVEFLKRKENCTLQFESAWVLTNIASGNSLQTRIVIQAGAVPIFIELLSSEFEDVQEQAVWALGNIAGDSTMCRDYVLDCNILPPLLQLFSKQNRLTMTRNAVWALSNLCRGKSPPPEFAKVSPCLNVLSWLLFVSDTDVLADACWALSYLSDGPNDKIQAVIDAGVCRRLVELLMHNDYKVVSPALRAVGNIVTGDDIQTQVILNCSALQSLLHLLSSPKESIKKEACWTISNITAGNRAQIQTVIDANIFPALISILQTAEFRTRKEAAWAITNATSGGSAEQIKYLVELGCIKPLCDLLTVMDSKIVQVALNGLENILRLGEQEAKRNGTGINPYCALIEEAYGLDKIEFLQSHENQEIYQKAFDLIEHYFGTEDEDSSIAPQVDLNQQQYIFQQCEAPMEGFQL", "UniProt P40763": "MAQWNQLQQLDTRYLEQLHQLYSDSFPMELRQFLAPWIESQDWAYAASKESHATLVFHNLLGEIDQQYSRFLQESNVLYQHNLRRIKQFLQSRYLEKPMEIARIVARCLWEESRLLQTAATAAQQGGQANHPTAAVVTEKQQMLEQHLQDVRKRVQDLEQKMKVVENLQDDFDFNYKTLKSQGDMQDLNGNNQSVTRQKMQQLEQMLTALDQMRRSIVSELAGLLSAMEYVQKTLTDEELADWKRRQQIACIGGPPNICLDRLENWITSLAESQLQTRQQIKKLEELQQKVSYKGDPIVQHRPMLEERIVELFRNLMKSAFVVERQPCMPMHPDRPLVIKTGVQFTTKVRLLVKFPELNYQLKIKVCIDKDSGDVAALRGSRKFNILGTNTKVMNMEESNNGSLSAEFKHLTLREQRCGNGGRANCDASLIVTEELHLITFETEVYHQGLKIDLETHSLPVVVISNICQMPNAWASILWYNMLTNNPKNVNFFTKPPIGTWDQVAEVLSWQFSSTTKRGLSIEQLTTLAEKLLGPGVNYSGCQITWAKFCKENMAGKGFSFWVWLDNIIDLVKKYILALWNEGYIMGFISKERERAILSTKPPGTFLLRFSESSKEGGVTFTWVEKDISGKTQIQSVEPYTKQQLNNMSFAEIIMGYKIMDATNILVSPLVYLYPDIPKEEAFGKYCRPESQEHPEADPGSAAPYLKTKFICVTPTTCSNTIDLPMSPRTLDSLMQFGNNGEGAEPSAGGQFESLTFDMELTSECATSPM", "macroH2A1.2 (mH2A1.2), endogenous (O75367-1, form named)": "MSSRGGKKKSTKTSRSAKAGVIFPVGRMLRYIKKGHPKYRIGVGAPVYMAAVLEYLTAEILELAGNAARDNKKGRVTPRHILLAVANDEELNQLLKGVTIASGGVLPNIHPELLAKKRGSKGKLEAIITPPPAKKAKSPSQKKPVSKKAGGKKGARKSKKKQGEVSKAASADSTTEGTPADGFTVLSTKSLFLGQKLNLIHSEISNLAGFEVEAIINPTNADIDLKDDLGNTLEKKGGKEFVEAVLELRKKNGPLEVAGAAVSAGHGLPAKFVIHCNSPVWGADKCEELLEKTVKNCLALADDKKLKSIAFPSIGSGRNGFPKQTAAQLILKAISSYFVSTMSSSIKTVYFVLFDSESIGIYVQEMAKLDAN"},
  "source": "paper PMC6728346",
  "key": {"[1]": {"biological_target": "T1, Tripartite motif-containing 59 (TRIM59), endogenous (human (endogenous in LN229 and U87)) (UniProt Q8IWR1)", "T1 sequence": "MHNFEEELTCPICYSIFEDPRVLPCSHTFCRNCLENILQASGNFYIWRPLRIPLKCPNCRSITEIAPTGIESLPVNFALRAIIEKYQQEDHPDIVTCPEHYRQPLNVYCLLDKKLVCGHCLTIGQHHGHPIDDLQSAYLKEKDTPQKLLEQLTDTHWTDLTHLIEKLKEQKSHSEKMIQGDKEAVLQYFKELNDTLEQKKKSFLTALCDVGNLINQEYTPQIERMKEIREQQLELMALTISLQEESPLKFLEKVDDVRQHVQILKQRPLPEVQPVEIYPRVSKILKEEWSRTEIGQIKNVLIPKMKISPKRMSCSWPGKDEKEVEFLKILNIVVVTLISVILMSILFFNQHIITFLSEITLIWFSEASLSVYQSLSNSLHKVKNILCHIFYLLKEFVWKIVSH", "assay": "co-IP; endogenous proteins; lysates of LN229 and U87 cells expressing EGFRvIII or EGFR, with or without EGF (100 ng/ml), one panel with Roscovitine (20 μM) pre-treatment; IP lysis buffer 20 mM Tris-HCl pH 7.5, 150 mM NaCl, 1 mM EDTA, 1% Triton X-100; protein G-agarose; WB"}, "[2]": {"biological_target": "GST-CDK5 (human (cDNA amplified from U87 cells)) (UniProt Q00535)", "assay": "pull-down; purified GST-CDK5 (glutathione beads) incubated with cell extracts from U87/EGFR cells with or without EGF stimulation for 30 min; WB; only the target purified"}, "[3]": {"biological_target": "Cyclin-dependent kinase 5 (CDK5), endogenous (human (endogenous in LN229 and U87)) (UniProt Q00535)", "assay": "co-IP; endogenous proteins; lysates of LN229 and U87 cells expressing EGFRvIII or EGFR, with or without EGF (100 ng/ml), one panel with Roscovitine (20 μM) pre-treatment; IP lysis buffer 20 mM Tris-HCl pH 7.5, 150 mM NaCl, 1 mM EDTA, 1% Triton X-100; protein G-agarose; WB"}, "[4]": {"biological_target": "Flag-tagged importin α5 (human (cDNA amplified from U87 cells)) (UniProt P52294)", "assay": "co-IP; Flag-tagged importin α proteins and HA-tagged TRIM59 (WT, S308A, NLS-mut) co-expressed in LN229/EGFR cells, with or without EGF (100 ng/ml) for 6 h"}, "[5]": {"biological_target": "Myc-importin α5 (human (cDNA amplified from U87 cells)) (UniProt P52294)", "assay": "co-IP; Myc-importin α5 and HA-TRIM59 S308D co-expressed with Flag-PIN1 WT or PIN1 C113A mutant in LN229 cells"}, "[6]": {"biological_target": "Signal transducer and activator of transcription 3 (STAT3) (UniProt P40763)", "assay": "co-IP; Supplementary Fig. 13: U87/EGFRvIII/shTRIM59 cells with empty vector or re-expressed TRIM59 WT, S308A or NLS mutant; TC45 association with STAT3; method not given"}, "[7]": {"biological_target": "Flag-tagged CDK5 wild type (human (cDNA amplified from U87 cells)) (UniProt Q00535)", "assay": "co-IP; Supplementary Fig. 4: ectopic expression of TRIM59 (increasing dose; WT, S308A, S308D) and CDK5 WT or KD; method, cells and tags not given"}},
  "note": "Results are given in words; binding and its absence hold for the method and conditions named. In cells and extracts the contact can be indirect. Some results given as binding are weak or reduced against the parent protein; the word gives no strength. For part of these data: Tags and fused reporters may be left off the sequences shown.",
  "data": [
    {"molecule": "macroH2A1.2 (mH2A1.2), endogenous (from UniProt O75367-1 1-372)", "values": [
      {"measurement": "binding", "setting": "[1]", "value": "binds"}
    ]},
    {"molecule": "macroH2A1.1 (mH2A1.1), endogenous (from UniProt O75367-2 1-369)", "values": [
      {"measurement": "binding", "setting": "[1]", "value": "binds"}
    ]},
    {"molecule": "Tripartite motif-containing 59 (TRIM59), endogenous (protein, UniProt Q8IWR1 1-403) MHNFEEELTCPICYSIFEDPRVLPCSHTFCRNCLENILQASGNFYIWRPLRIPLKCPNCRSITEIAPTGIESLPVNFALRAIIEKYQQEDHPDIVTCPEHYRQPLNVYCLLDKKLVCGHCLTIGQHHGHPIDDLQSAYLKEKDTPQKLLEQLTDTHWTDLTHLIEKLKEQKSHSEKMIQGDKEAVLQYFKELNDTLEQKKKSFLTALCDVGNLINQEYTPQIERMKEIREQQLELMALTISLQEESPLKFLEKVDDVRQHVQILKQRPLPEVQPVEIYPRVSKILKEEWSRTEIGQIKNVLIPKMKISPKRMSCSWPGKDEKEVEFLKILNIVVVTLISVILMSILFFNQHIITFLSEITLIWFSEASLSVYQSLSNSLHKVKNILCHIFYLLKEFVWKIVSH", "values": [
      {"measurement": "binding", "setting": "[2]", "value": "binds"},
      {"measurement": "binding", "setting": "[3]", "value": "binds"}
    ]},
    {"molecule": "HA-tagged TRIM59 wild type (protein, UniProt Q8IWR1 1-403) MHNFEEELTCPICYSIFEDPRVLPCSHTFCRNCLENILQASGNFYIWRPLRIPLKCPNCRSITEIAPTGIESLPVNFALRAIIEKYQQEDHPDIVTCPEHYRQPLNVYCLLDKKLVCGHCLTIGQHHGHPIDDLQSAYLKEKDTPQKLLEQLTDTHWTDLTHLIEKLKEQKSHSEKMIQGDKEAVLQYFKELNDTLEQKKKSFLTALCDVGNLINQEYTPQIERMKEIREQQLELMALTISLQEESPLKFLEKVDDVRQHVQILKQRPLPEVQPVEIYPRVSKILKEEWSRTEIGQIKNVLIPKMKISPKRMSCSWPGKDEKEVEFLKILNIVVVTLISVILMSILFFNQHIITFLSEITLIWFSEASLSVYQSLSNSLHKVKNILCHIFYLLKEFVWKIVSH", "values": [
      {"measurement": "binding", "setting": "[4]", "value": "binds"}
    ]},
    {"molecule": "HA-TRIM59 S308A (protein, UniProt Q8IWR1 1-403) MHNFEEELTCPICYSIFEDPRVLPCSHTFCRNCLENILQASGNFYIWRPLRIPLKCPNCRSITEIAPTGIESLPVNFALRAIIEKYQQEDHPDIVTCPEHYRQPLNVYCLLDKKLVCGHCLTIGQHHGHPIDDLQSAYLKEKDTPQKLLEQLTDTHWTDLTHLIEKLKEQKSHSEKMIQGDKEAVLQYFKELNDTLEQKKKSFLTALCDVGNLINQEYTPQIERMKEIREQQLELMALTISLQEESPLKFLEKVDDVRQHVQILKQRPLPEVQPVEIYPRVSKILKEEWSRTEIGQIKNVLIPKMKIAPKRMSCSWPGKDEKEVEFLKILNIVVVTLISVILMSILFFNQHIITFLSEITLIWFSEASLSVYQSLSNSLHKVKNILCHIFYLLKEFVWKIVSH", "values": [
      {"measurement": "binding", "setting": "[4]", "value": "binds"}
    ]},
    {"molecule": "HA-TRIM59 S308D (protein, UniProt Q8IWR1 1-403) MHNFEEELTCPICYSIFEDPRVLPCSHTFCRNCLENILQASGNFYIWRPLRIPLKCPNCRSITEIAPTGIESLPVNFALRAIIEKYQQEDHPDIVTCPEHYRQPLNVYCLLDKKLVCGHCLTIGQHHGHPIDDLQSAYLKEKDTPQKLLEQLTDTHWTDLTHLIEKLKEQKSHSEKMIQGDKEAVLQYFKELNDTLEQKKKSFLTALCDVGNLINQEYTPQIERMKEIREQQLELMALTISLQEESPLKFLEKVDDVRQHVQILKQRPLPEVQPVEIYPRVSKILKEEWSRTEIGQIKNVLIPKMKIDPKRMSCSWPGKDEKEVEFLKILNIVVVTLISVILMSILFFNQHIITFLSEITLIWFSEASLSVYQSLSNSLHKVKNILCHIFYLLKEFVWKIVSH", "values": [
      {"measurement": "binding", "setting": "[5]", "value": "binds"}
    ]},
    {"molecule": "T cell protein tyrosine phosphatase (TC45) (enzyme, UniProt P17706-2 1-387) MPTTIEREFEELDTQRRWQPLYLEIRNESHDYPHRVAKFPENRNRNRYRDVSPYDHSRVKLQNAENDYINASLVDIEEAQRSYILTQGPLPNTCCHFWLMVWQQKTKAVVMLNRIVEKESVKCAQYWPTDDQEMLFKETGFSVKLLSEDVKSYYTVHLLQLENINSGETRTISHFHYTTWPDFGVPESPASFLNFLFKVRESGSLNPDHGPAVIHCSAGIGRSGTFSLVDTCLVLMEKGDDINIKQVLLNMRKYRMGLIQTPDQLRFSYMAIIEGAKCIKGDSSIQKRWKELSKEDLSPAFDHSPNKIMTEKYNGNRIGLEEEKLTGDRCTGLSSKMQDTMEENSESALRKRIREDRKATTAQKVQQMKQRLNENERKRKRPRLTDT", "values": [
      {"measurement": "binding", "setting": "[6]", "value": "binds"}
    ]},
    {"molecule": "TRIM59 wild type, exogenous (tag not stated) (protein, UniProt Q8IWR1 1-403) MHNFEEELTCPICYSIFEDPRVLPCSHTFCRNCLENILQASGNFYIWRPLRIPLKCPNCRSITEIAPTGIESLPVNFALRAIIEKYQQEDHPDIVTCPEHYRQPLNVYCLLDKKLVCGHCLTIGQHHGHPIDDLQSAYLKEKDTPQKLLEQLTDTHWTDLTHLIEKLKEQKSHSEKMIQGDKEAVLQYFKELNDTLEQKKKSFLTALCDVGNLINQEYTPQIERMKEIREQQLELMALTISLQEESPLKFLEKVDDVRQHVQILKQRPLPEVQPVEIYPRVSKILKEEWSRTEIGQIKNVLIPKMKISPKRMSCSWPGKDEKEVEFLKILNIVVVTLISVILMSILFFNQHIITFLSEITLIWFSEASLSVYQSLSNSLHKVKNILCHIFYLLKEFVWKIVSH", "values": [
      {"measurement": "binding", "setting": "[7]", "value": "binds"}
    ]}
  ]
}
